Results on 2 substances are retold here after publication PMC12141185.

Amino acid sequences for entries named in this document (tags omitted).
UniProt Q13283: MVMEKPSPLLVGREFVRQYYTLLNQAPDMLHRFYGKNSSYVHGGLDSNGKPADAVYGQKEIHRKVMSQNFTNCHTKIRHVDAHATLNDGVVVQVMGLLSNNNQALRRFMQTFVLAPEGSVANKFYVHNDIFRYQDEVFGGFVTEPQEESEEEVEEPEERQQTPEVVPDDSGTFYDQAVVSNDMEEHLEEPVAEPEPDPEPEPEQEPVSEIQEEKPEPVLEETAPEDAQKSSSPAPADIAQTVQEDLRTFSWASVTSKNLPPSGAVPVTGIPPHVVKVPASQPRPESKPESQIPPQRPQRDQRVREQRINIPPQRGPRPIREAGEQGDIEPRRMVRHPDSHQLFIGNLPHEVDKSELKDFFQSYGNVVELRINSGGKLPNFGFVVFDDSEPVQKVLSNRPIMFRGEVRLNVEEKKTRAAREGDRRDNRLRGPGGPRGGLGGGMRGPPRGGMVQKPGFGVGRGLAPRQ
UniProt O95365: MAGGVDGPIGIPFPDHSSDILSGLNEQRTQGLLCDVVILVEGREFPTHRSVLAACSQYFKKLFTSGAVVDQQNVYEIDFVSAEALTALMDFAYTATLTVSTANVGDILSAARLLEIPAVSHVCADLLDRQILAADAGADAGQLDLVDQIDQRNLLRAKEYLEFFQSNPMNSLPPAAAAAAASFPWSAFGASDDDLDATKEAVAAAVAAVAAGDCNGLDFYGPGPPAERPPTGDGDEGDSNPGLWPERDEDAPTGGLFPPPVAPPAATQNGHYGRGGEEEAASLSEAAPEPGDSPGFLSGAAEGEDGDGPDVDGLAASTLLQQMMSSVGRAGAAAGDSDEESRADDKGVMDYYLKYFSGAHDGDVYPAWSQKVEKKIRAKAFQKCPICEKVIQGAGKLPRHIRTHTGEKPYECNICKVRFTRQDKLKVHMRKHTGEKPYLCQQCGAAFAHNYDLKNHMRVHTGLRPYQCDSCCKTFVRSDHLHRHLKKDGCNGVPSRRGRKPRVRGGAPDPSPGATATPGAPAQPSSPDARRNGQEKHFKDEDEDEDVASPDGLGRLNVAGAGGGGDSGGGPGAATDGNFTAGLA

These are yes or no findings as the source states them, for the method shown. Binding seen in cells or lysates may run through a third protein. A yes stands for co-enrichment or nearness to the bait. Other partners may have been found. Sequences can lack the tags named with a protein.

This experiment concerns the target T1, 3 × FLAG-TMED3 (Transmembrane emp24 domain-containing protein 3) (UniProt Q9Y3Q3).
T1 sequence: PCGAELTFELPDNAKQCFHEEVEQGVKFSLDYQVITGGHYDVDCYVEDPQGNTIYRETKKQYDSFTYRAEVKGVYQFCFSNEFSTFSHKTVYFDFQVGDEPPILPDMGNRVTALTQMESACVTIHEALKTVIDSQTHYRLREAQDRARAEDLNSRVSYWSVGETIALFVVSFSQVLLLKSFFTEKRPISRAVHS
Kind of experiment: affinity purification with mass spectrometry; Co-IP with FLAG-beads (Sigma) from RIPA lysates of stable NC (empty vector) and OE (3xFLAG-TMED3) U87 MG lines; SDS-PAGE, in-gel trypsin digestion, LC-MS/MS (Q-Exactive); proteins specific to the OE group selected.

In the case of G3BP1 (from UniProt Q13283 1-466), the binding entry is given as “binds”.

“Zinc finger and BTB domain-containing protein 7A (ZBTB7A) (from UniProt O95365 1-584)”: the binding entry is “binds”.
